We go through one compound from patent publication US12409206B2, “Use of cyclosporine analogues for treating fibrosis” (Hepion Pharmaceuticals, Inc., priority 2020, dated 2025).

Data set [1] relates to human precision cut liver slices (PCLS). Description: PCLS RNA-Seq, Stimulation Protocol: TGFb/PDGF+CRV vs TGFb/PDGF+Vehicle. The format is cell-based. The following applies: overlap of all three donors. The procedure: (§1) PCLS were obtained from 5 human donors who underwent resection of liver cancer. Replicate slices were collected from healthy margins of the resections and cultured for 4 or 6 days depending on the experimental protocol. In the Nonstimulation Protocol slices were cultured for 6 days and treated for the entire period with DMSO vehicle or 5 μM CRV431. In the Stimulation Protocol slices were rested for 1 day and then administered the cytokines, TGFβ and PDGF-BB, for 3 days to stimulate inflammation and fibrosis. […]
(§2) Four types of evaluations were conducted on the PCLS: (a) secretion of inflammation and fibrosis biomarkers into the culture medium, (b) histological staining and quantitation of Sirius red as a measure of tissue fibrosis, (c) gene expression of inflammation and fibrosis biomarkers by RT-PCR, and (d) RNA sequencing (RNA-Seq) of the complete transcriptome. […] ELISAs were used to quantify secretion of monocyte chemoattractant protein (MCP-1), interleukin-6 (IL-6), tissue inhibitor of metalloproteinase-1 (TIMP1), hyaluronic acid, fibronectin, and collagen 1α1. For each donor the mean level of biomarker secretion in each treatment group was expressed as a percentage change relative to DMSO vehicle, the percentages averaged for all donors, and finally the mean daily percentage change calculated from all days of evaluation. […]

Data set [2] shares this test system. Kind of data set: PCLS RNA-Seq, Nonstimulation Protocol: Non-stimulated+CRV vs Non-stimulated+Vehicle. The format is cell-based. The following applies: overlap of all three donors. The procedure:
as §1, §2

For `CC[C@@H]1NC(=O)[C@H]([C@H](O)[C@H](C)CCCCCCNC(C)=O)N(C)C(=O)[C@H](C(C)C)N(C)C(=O)[C@H](CC(C)C)N(C)C(=O)[C@H](CC(C)C)N(C)C(=O)[C@@H](C)NC(=O)[C@H](C)NC(=O)[C@H](CC(C)C)N(C)C(=O)[C@H](C(C)C)NC(=O)[C@H](CC(C)C)N(C)C(=O)[C@@H](C)N(C)C1=O` [CRV431], in data set [1], the “number of genes with at least 300 copies less in the CRV treated than in the vehicle” value turned out to be 279 genes and the “number of genes with at least 300 copies more in the CRV treated samples than in the vehicle” value came out at 117 genes. Moreover, in data set [2], the “number of genes with 300 or less copies in the CRV treated than in the vehicle” value turned out to be 255 genes and the “number of genes with at least 300 copies more in the CRV treatment than in the Vehicle” value is recorded as 210 genes.
